In the supplement of paper PMC10849652:
Some of the results follow.

Chains of the proteins cited; added tags and fusions are not shown. Lines headed by an entry give the natural chain unless they say otherwise; changes in a name come on top.
UniProt Q15650: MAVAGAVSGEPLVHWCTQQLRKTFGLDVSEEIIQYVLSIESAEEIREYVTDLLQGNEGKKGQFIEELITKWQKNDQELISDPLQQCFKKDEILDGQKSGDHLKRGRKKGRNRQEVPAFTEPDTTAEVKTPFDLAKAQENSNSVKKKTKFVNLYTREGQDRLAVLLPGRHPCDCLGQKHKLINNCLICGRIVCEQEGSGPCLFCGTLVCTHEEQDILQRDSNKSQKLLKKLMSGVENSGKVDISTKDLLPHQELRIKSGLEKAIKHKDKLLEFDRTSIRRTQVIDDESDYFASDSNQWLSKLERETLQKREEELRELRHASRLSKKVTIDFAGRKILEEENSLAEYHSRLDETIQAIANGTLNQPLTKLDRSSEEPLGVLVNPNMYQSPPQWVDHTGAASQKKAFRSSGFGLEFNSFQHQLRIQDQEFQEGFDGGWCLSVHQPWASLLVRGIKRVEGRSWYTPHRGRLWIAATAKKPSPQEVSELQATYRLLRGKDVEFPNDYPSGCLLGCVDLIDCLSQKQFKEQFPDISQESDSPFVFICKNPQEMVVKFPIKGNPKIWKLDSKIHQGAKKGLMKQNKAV
UniProt P19474, whole entry, looked up: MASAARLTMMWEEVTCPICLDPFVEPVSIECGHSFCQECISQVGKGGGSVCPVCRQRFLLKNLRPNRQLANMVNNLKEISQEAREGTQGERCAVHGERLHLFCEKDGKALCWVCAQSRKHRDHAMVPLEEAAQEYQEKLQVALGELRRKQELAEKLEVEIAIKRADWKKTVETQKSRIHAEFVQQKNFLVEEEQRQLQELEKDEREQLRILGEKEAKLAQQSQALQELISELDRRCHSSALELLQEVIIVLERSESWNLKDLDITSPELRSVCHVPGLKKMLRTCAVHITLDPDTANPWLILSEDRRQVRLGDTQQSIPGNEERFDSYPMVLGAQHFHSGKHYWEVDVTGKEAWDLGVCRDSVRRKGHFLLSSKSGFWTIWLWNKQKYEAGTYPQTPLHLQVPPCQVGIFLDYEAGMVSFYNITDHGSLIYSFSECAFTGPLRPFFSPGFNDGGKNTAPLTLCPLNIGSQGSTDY
UniProt Q9BSV6: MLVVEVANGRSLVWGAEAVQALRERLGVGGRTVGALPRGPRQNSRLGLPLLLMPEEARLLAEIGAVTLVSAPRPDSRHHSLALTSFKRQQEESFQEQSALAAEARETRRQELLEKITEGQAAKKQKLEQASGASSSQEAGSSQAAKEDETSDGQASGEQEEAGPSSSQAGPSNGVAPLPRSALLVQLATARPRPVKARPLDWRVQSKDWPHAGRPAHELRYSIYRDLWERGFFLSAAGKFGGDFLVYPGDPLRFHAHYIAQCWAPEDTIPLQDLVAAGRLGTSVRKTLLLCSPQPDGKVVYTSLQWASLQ
UniProt P48553, whole entry, looked up: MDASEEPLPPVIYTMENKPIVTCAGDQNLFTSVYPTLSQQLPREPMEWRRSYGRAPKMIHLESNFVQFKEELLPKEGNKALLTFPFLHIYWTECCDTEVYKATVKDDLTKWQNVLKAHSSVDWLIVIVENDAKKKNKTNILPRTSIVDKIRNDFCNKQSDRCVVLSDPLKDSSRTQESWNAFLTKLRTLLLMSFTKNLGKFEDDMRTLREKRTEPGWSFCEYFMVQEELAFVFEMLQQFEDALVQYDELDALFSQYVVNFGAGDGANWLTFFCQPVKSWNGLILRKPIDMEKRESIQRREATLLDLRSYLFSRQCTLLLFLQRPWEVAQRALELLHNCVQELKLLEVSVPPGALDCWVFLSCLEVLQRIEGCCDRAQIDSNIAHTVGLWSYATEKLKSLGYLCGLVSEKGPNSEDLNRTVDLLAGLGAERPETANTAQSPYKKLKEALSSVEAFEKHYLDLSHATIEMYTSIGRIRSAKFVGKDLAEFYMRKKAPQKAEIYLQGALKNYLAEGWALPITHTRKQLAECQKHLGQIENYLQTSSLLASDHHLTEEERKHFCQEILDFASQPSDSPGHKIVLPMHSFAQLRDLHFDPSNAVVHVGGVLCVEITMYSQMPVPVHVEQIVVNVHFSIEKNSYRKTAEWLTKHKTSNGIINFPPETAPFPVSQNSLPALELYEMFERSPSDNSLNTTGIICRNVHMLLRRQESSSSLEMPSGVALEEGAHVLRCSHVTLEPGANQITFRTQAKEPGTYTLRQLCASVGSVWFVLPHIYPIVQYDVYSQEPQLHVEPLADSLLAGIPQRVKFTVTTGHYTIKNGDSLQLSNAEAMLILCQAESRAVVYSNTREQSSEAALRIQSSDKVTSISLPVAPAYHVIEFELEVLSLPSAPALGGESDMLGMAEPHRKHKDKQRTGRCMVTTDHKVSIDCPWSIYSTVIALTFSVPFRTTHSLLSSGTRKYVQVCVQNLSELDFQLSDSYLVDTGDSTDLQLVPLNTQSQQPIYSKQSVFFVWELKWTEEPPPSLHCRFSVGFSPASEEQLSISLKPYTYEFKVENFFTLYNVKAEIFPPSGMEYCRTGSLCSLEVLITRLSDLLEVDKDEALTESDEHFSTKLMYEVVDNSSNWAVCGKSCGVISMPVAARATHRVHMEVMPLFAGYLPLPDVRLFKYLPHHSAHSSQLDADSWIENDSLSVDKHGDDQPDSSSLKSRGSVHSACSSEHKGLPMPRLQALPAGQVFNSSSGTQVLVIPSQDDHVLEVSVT
UniProt Q13630: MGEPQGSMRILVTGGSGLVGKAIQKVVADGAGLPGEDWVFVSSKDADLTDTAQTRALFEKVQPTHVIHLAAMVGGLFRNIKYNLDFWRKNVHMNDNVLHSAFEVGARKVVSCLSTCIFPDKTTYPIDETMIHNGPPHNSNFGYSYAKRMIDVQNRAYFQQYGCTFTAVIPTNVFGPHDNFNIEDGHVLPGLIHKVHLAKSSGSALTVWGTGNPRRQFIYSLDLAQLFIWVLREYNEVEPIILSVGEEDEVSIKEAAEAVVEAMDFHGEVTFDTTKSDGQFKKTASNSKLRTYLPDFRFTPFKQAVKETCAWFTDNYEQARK
UniProt Q6Q0C0: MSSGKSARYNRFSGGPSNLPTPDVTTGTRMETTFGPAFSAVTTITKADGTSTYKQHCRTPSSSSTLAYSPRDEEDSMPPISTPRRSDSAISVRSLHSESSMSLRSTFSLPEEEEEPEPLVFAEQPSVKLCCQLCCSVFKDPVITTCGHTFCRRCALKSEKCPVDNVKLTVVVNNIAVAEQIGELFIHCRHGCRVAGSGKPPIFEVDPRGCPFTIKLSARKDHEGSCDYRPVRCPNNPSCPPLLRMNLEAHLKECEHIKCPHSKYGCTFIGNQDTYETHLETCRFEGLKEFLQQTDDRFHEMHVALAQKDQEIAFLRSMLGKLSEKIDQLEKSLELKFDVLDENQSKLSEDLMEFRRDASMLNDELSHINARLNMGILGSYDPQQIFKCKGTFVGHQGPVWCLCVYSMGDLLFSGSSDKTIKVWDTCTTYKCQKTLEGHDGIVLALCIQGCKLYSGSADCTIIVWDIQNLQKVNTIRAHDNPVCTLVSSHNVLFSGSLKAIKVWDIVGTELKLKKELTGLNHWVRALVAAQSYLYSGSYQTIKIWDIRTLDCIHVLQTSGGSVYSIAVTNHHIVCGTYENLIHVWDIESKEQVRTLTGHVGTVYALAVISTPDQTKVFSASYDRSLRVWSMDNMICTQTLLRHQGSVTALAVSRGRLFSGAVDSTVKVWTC
UniProt O95900: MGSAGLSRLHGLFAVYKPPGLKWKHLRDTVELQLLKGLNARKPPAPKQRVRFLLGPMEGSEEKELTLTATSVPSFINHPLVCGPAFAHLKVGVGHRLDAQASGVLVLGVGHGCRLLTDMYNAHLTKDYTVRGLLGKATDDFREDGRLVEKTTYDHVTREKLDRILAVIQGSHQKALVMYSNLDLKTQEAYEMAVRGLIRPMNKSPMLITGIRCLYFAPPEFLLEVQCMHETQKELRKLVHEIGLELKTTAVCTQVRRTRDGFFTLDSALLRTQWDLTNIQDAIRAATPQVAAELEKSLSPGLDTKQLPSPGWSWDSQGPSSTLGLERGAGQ
UniProt Q96RU7: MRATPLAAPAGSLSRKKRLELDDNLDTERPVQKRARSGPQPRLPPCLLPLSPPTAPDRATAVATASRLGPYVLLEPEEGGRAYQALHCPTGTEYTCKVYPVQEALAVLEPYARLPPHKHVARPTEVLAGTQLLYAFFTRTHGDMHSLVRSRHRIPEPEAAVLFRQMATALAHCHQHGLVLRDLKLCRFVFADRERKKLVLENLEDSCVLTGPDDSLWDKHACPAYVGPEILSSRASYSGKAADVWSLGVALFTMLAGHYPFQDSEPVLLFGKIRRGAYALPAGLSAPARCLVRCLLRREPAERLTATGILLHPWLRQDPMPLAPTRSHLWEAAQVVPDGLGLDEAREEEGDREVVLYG
UniProt Q96AE7: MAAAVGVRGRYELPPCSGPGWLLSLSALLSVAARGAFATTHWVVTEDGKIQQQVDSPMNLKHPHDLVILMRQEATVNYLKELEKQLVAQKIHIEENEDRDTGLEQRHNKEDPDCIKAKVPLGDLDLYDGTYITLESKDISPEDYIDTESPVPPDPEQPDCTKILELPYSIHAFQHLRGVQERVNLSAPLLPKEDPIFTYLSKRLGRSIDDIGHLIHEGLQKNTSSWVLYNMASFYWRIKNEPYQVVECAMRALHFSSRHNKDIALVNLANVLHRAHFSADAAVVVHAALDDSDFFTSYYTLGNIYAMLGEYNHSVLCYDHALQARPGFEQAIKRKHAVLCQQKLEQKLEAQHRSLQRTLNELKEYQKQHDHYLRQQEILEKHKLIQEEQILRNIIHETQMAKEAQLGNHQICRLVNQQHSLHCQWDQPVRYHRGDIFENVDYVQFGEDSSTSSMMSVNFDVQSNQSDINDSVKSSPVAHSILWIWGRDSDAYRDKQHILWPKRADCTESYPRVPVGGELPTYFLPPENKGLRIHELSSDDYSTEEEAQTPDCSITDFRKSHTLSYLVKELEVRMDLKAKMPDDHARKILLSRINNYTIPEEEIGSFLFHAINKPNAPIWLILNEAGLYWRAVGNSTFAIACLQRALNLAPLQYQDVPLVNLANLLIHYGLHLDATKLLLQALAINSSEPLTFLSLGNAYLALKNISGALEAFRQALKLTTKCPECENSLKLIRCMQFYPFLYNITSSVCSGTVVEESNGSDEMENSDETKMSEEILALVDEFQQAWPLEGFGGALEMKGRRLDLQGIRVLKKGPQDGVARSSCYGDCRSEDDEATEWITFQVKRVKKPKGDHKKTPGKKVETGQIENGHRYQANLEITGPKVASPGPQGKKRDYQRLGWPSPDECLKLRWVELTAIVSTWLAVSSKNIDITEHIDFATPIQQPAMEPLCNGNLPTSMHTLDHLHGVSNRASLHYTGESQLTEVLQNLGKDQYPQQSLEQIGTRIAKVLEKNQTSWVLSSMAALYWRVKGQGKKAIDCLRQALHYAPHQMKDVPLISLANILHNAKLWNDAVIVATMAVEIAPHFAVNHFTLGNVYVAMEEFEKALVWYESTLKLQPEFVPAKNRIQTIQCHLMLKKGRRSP
UniProt Q96GJ1: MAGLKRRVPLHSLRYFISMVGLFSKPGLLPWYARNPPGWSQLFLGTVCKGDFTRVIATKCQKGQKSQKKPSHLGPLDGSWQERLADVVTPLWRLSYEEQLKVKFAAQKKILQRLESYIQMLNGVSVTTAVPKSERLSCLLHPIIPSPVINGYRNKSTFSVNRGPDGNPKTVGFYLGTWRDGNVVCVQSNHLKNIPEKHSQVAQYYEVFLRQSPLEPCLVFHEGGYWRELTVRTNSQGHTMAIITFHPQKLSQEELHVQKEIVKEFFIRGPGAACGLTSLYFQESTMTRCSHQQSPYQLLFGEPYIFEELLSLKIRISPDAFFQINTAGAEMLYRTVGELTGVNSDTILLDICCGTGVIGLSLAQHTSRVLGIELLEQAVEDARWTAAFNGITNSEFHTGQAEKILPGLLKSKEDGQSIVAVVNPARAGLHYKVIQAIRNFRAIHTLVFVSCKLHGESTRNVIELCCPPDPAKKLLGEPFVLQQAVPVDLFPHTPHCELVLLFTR
UniProt Q629K1: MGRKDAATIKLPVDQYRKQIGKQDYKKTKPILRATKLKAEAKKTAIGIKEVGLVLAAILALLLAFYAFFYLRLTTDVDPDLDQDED
UniProt Q9Y5U2: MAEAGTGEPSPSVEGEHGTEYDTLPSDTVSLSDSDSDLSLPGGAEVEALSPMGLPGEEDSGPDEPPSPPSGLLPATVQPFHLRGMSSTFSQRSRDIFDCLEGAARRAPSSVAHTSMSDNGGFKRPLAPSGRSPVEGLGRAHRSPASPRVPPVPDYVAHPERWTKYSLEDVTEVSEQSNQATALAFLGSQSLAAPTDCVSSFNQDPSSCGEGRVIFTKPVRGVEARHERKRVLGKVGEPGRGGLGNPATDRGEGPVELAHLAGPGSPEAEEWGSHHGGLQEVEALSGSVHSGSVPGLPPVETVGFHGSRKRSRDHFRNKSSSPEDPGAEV
UniProt Q12999: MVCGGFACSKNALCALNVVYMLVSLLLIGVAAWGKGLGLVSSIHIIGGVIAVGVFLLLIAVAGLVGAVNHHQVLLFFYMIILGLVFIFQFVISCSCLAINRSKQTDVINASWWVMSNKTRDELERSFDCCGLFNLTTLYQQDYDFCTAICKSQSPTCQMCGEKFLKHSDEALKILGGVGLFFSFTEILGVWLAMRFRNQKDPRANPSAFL

Columns and labels:
Assay in all cases: log2 fold change, soluble protein after heating vs DMSO (PISA); higher = thermal stabilisation; K562 lysate, 10 uM; active = over 0.2 and 3.5 SD of the protein, either way, in both replicates (recomputed)
[1] = compound: C1=CC=C(C=C1)[C@H](COC2=CC3=C(C=C2)NC(=O)N3)NC(=O)C4=CC=CN(C4=O)CC5=CC(=C(C=C5)F)F
Outline: (§1)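 To prepare the extract, K562 pellets were dounce-homogenised in PBS pH 7.4 with 1 mM MgCl2, giving crude material at 1 mg/mL protein. This was treated with 10 μM compound for 30 min, then heated in aliquots for 3 min over 48°C-58°C before pooling and addition of NP-40 to 0.5% at 4°C. Centrifugation at 21,000xg for 90 min left soluble protein in the supernatant, which TMTpro 16plex LC-MS/MS quantified with equalised channel sums. Results are log-two fold changes in thermal stability compared with solvent controls, from duplicates.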

[2] = compound: CC1=C(SC2=C1C(=N[C@H](C3=NN=C(N32)C)CC(=O)N)C4=CC=C(C=C4)Cl)C
Outline: as §1

[3] = compound: CC1=C2C(=CC=C1)N=C(N(C2=O)C3=CC=CC=C3C)CN4C=NC5=C(N=CN=C54)N
Outline: as §1

[4] = compound: Cc1sc2c(c1C)C(c1ccc(Cl)cc1)=N[C@@H](CC(=O)OC(C)(C)C)c1nnc(C)n1-2
Outline: as §1

[5] = compound: c1ccc([C@@H]2C[C@H]2NC2CCNCC2)cc1
Outline: as §1

Measured: log2 fold change

TRIM25 (UniProt Q14258)
inactive: [1] 0.047 | [2] 0.001 | [3] 0.001 | [4] 0.013 | [5] 0.044

TRIP4 (UniProt Q15650)
inactive: [1] 0.017 | [2] 0.013 | [3] 0.04 | [4] -0.062 | [5] 0.007

TRIM21 (UniProt P19474)
inactive: [1] 0.006 | [2] 0.039 | [3] 0.069 | [4] -0.012 | [5] 0.259

TRIM33 (UniProt H0Y612)
inactive: [1] -0.042 | [2] 0.008 | [3] 0.05 | [4] 0.021 | [5] 0.098

TSEN34 (UniProt Q9BSV6)
inactive: [1] -0.031 | [2] -0.034 | [3] -0.055 | [4] -0.008 | [5] 0.06

TRMT2A (UniProt Q8IZ69)
inactive: [1] 0.003 | [2] 0.02 | [3] 0.003 | [4] 0.02 | [5] 0.027

TRAPPC10 (UniProt P48553)
inactive: [1] -0.014 | [2] -0.015 | [3] 0.033 | [4] -0.004 | [5] -0.012

TSTA3 (UniProt Q13630)
inactive: [1] 0.007 | [2] 0.042 | [3] -0.009 | [4] 0.047 | [5] 0.011

TRAM1 (UniProt Q15629)
inactive: [1] -0.214 | [2] -0.011 | [3] 0.043 | [4] 0.006 | [5] -0.015

Two neighbouring records already listed, for reference:
TRIM21 (UniProt P19474)
inactive: [1] 0.006 | [2] 0.039 | [3] 0.069 | [4] -0.012 | [5] 0.259

TRIM33 (UniProt H0Y612)
inactive: [1] -0.042 | [2] 0.008 | [3] 0.05 | [4] 0.021 | [5] 0.098

Next entries:

TRAF7 (UniProt Q6Q0C0)
inactive: [3] 0.007 | [4] -0.005 | [5] 0.238

TRUB2 (UniProt O95900)
inactive: [3] -0.009 | [4] -0.113 | [5] 0.099

TRIB3 (UniProt Q96RU7)
inactive: [4] 0.186

TTC17 isoform 2 (UniProt Q96AE7)
inactive: [5] -0.078

TRMT2B (UniProt Q96GJ1)
inactive: [1] -0.126 | [2] 0.218 | [4] -0.021 | [5] 0.096

TRIQK (UniProt Q629K1)
inactive: [1] 0.007 | [2] 0.041 | [4] -0.369

TSSC4 (UniProt Q9Y5U2)
inactive: [1] 0.055 | [2] 0.07 | [3] 0.05 | [4] -0.022 | [5] -0.068

TSPAN31 (UniProt Q12999)
inactive: [3] 0.034 | [4] 0.094
